One assay has as its target FLAG-TLE2 (UniProt Q9WVB2). Kind of assay: co-IP; HEK293T cells co-transfected with a FLAG-tagged and a Myc-tagged construct; lysis in 50 mM Tris-HCl pH 7.4, 150 mM NaCl, 1 mM EDTA, 0.5% NP-40, 1 mM DTT; anti-FLAG M2 affinity gel at 4°C; blots with anti-FLAG and anti-Myc.
Another assay deals with FLAG-TLE1 (mouse) (UniProt Q62440). Described as above.
Another assay has as its target T1, FLAG-Tbx6 (mouse) (UniProt P70327).
T1 sequence: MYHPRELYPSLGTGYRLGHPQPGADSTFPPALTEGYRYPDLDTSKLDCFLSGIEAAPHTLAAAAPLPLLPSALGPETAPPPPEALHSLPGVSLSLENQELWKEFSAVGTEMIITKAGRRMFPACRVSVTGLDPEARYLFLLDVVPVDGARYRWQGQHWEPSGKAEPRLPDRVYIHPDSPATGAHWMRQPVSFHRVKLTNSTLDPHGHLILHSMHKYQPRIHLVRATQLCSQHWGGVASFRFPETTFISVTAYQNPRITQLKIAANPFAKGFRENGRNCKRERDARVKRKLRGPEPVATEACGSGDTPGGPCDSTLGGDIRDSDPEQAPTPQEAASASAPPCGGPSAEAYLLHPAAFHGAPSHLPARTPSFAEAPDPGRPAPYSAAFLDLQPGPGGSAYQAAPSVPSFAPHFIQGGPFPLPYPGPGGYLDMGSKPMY
The assay is described as above.

Amino acid sequences for entries named in this document (tags omitted).
UniProt Q9WVB2: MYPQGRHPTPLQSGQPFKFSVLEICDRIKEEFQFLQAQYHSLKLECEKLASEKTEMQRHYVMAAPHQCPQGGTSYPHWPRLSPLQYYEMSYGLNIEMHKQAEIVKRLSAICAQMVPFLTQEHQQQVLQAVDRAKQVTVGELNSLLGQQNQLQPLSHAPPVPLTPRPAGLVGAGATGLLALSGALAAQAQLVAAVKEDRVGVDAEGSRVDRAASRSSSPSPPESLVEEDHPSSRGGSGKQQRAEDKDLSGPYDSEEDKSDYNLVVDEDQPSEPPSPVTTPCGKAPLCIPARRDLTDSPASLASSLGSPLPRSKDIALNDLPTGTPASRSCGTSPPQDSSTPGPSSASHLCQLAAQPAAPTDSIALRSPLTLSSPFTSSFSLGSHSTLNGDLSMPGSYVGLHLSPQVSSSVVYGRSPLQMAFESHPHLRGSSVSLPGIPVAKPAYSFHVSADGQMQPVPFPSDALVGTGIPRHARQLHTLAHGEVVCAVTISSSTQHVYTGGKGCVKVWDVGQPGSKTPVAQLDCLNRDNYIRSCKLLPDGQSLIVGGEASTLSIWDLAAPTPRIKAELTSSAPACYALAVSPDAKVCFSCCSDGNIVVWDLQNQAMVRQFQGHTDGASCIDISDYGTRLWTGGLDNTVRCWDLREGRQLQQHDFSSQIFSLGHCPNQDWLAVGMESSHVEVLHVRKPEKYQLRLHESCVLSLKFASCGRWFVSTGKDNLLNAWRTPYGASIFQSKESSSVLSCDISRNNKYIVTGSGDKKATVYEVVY
UniProt Q62440: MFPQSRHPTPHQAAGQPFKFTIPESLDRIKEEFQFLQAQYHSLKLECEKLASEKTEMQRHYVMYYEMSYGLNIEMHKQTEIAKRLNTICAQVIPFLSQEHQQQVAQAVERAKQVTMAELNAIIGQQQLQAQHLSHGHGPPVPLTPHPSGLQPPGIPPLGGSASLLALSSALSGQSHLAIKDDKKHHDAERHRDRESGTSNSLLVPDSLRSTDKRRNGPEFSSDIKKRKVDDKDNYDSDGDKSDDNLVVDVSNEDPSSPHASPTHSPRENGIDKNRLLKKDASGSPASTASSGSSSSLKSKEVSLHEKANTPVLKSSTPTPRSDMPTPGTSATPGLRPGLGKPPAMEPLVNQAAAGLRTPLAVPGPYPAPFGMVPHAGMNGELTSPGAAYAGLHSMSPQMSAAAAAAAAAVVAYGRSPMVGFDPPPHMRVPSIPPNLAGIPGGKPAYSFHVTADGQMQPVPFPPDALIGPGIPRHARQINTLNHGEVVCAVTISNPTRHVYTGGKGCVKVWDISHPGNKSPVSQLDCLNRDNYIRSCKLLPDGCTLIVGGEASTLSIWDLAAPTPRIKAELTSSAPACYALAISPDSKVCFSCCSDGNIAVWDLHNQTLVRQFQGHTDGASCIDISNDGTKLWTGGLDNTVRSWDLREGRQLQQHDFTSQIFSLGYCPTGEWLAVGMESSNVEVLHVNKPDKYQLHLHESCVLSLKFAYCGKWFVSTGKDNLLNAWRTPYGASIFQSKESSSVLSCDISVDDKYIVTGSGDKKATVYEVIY

The target of assay [1] is FLAG-Tbx6_(Δ124~152) (mouse) (UniProt P70327). Described as above.
For assay [2], the target named is FLAG-Tbx6_(ΔT-box) (mouse). The assay is described as above.
The target of assay [3] is GST-Tbx6_(Δ124-152aa) (mouse) (UniProt P70327). Put plainly: pull-down; supernatant of sonicated E. coli with GST or GST-Tbx6 (or mutant) mixed with purified His-Ripply2 and glutathione-sepharose 4FF, 2 hr; 25 mM HEPES-KOH pH 7.4, 150 mM NaCl, 0.1% NP-40, 1 mM DTT, 1 mM EDTA; blot with anti-Ripply2 (and anti-His); only the binder purified.

Results are given in words; binding and its absence hold for the method and conditions named. Binding seen in cells or lysates may run through a third protein. For part of these data: Binding calls can cover weak binding; strength is not graded here. For part of these data: Sequences can lack the tags named with a protein.

On to “Myc-Ripply2_(ΔFPIQ) (from UniProt Q2WG76)”, for which the values for the binding result with FLAG-TLE2, with FLAG-TLE1 (mouse) and with FLAG-Tbx6 (mouse) were “binds”, “binds” and “no binding”, respectively.

Regarding “Myc-Ripply2_(ΔWRPW) (from UniProt Q2WG76)”, the binding entry with FLAG-TLE2, with FLAG-TLE1 (mouse) and with FLAG-Tbx6 (mouse) was “no binding” in each case.

B1: Myc-Ripply2 (protein, UniProt Q2WG76 1-128)
chain: MDTTESAESAHNPARPPSRSRCPPSAQPGSEGFWRPWVRTPGEKEKRTGPRAAEALPSGPGMAEASGKLLQYQHPVRLFWPKSKCYDYLYQEAETLLKNFPIQATISFYEDSDSEDEIEGLACENQSN
Consider B1, for which the binding result in assay [1] is “binds”; in assay [2], “no binding”.

B2: His-Ripply2 (protein, UniProt Q2WG76 1-128)
chain: MDTTESAESAHNPARPPSRSRCPPSAQPGSEGFWRPWVRTPGEKEKRTGPRAAEALPSGPGMAEASGKLLQYQHPVRLFWPKSKCYDYLYQEAETLLKNFPIQATISFYEDSDSEDEIEGLACENQSN
As to B2, in assay [3], the binding result is “binds”.

The values are drawn from article PMC5953544.
